Measurements published in paper PMC10245438, “Domino-like effect of C112R mutation on ApoE4 aggregation and its reduction by Alzheimer’s Disease drug candidate” (Molecular Neurodegeneration, 2023).
Results are given in words; binding and its absence hold for the method and conditions named. Blank lines part the entries; values can stand above or below the substance they belong to.

The chains behind the UniProt entries cited, without tags or fusion partners. Where a name states a change or a piece, a line headed by the entry shows the natural chain unless it says otherwise. A line that says so, or that is headed by a name, gives the form on record, which may keep a tag or linker.
APOE3M-AS (P02649, form named): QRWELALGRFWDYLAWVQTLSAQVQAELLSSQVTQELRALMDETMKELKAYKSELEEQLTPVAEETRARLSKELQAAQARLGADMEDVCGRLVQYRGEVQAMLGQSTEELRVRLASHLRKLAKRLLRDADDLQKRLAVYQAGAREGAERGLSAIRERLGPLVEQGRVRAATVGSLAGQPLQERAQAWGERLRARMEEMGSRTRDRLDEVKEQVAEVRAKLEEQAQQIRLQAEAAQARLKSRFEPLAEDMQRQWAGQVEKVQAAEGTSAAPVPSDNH
APOE4M (P02649, form named): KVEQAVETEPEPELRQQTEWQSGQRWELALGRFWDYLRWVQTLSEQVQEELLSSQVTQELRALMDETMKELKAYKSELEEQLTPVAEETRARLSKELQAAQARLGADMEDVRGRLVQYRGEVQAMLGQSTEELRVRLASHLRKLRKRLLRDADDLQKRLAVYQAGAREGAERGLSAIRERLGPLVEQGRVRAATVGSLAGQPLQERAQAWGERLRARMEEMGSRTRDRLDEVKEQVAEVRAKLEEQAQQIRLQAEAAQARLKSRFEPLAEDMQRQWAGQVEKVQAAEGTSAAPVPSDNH
APOE4M-AS (P02649, form named): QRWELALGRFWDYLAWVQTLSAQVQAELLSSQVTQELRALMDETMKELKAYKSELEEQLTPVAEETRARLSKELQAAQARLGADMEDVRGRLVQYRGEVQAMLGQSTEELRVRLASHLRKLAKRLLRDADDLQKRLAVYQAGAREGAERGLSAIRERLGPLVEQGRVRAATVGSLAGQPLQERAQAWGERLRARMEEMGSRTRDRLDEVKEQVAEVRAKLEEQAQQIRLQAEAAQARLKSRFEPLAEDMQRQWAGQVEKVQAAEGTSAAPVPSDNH
APOE3M (P02649, form named): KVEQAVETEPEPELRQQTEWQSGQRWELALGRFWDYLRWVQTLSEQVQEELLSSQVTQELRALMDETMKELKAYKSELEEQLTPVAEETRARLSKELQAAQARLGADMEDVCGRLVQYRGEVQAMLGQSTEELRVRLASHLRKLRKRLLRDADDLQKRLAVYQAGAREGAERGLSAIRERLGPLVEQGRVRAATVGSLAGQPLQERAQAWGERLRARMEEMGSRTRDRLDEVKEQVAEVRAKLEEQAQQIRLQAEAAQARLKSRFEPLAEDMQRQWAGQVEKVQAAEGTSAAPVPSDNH

Legend:
APOE3M-AS (human) = APOE3M-AS (human) (UniProt P02649); assay: dynamic light scattering; ~0.2 mg/ml, room temperature, size distribution after SEC purification; both purified
APOE4M (human) [1] = target: APOE4M (human) (UniProt P02649); assay: static light scattering; ApoE ~10 uM, 37 °C, SLS at 266 nm for 15 h, Tris buffer pH 7.4; also with SPA (20 mM) or tramiprosate, which lowered the signal of ApoE4; both purified
APOE4M (human) [2] = target: APOE4M (human) (UniProt P02649); assay: HDX-MS; LC-MS/MS peptide mapping after protease digestion (nepenthesin-1 and pepsin) and deuterium uptake at 1, 2, 10 min; 10 mM Tris-HCl, 50 mM NaCl, room temperature; free or with SPA 1:1000; both purified
APOE4M-AS (human) = APOE4M-AS (human) (UniProt P02649); assay: dynamic light scattering; ~0.2 mg/ml, room temperature, size distribution after SEC purification; both purified
APOE3M (human) [3] = target: APOE3M (human) (UniProt P02649); assay: static light scattering; ApoE ~10 uM, 37 °C, SLS at 266 nm for 15 h, Tris buffer pH 7.4; also with SPA (20 mM) or tramiprosate, which lowered the signal of ApoE4; both purified
APOE3M (human) [4] = target: APOE3M (human) (UniProt P02649); assay: HDX-MS; LC-MS/MS peptide mapping after protease digestion (nepenthesin-1 and pepsin) and deuterium uptake at 1, 2, 10 min; 10 mM Tris-HCl, 50 mM NaCl, room temperature; free or with SPA 1:1000; both purified

- binding (APOE3M-AS (human)): no binding
Substance: APOE3M-AS (from UniProt P02649 42-317) (domain or fragment)

- binding (APOE4M (human) [1]): no binding (tested: ~ 10µM)
- binding (APOE4M (human) [2]): no binding
Substance: APOE4M (from UniProt P02649 19-317)

- binding (APOE4M-AS (human)): no binding
Substance: APOE4M-AS (from UniProt P02649 42-317) (domain or fragment)

- binding (APOE3M (human) [3]): no binding (tested: ~ 10µM)
- binding (APOE3M (human) [4]): no binding
Substance: APOE3M (from UniProt P02649 19-317)
